Data as given in PubChem BioAssay AID1259405 (NCATS, 2018)
The deposit covers about 50,000 reagents; shown is an unselected part. About 4,000 of all reagents (8%) were called active. 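Mouse siRNA library applied to hamster cells; one well for each siRNA.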 Unmarked entries are inactive. Reagents against one gene are numbered here.

Test: 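Silenced genes that increase secreted GFP made by CHO cells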 (primary screen)
Cells: Chinese hamster CHO-K1 ovary cells with stable secreted eGFP expression
Knock-down reagent: single siRNA against mouse genes, 0.8 pmol siRNA per well (2 µl of 400 nM stock)
Time to read-out: 3 days
Read-out: 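Percent of the per-plate non-targeting control median for intracellular GFP per well by laser scanning cytometry and for cell viability by ATP luminescence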
Direction: GFP, % of control: higher = more GFP per well, higher productivity; viability (ATP), % of control: higher = more viable cells (more ATP)
Rule for the call: 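Called active when intracellular GFP, relative to negative control, is at or above 120%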

Silencing of Bcorl1 (BCL6 co-repressor-like 1) #1 gave: GFP, % of control 28.9; viability (ATP), % of control 29.
For Bcorl1 (BCL6 co-repressor-like 1) #2, the values are GFP, % of control 39.1; viability (ATP), % of control 82.
After knock-down of Bcorl1 (BCL6 co-repressor-like 1) #3, the record shows GFP, % of control 119; viability (ATP), % of control 152.
Silencing of Pgr (progesterone receptor) #1 came out at: GFP, % of control 63.6; viability (ATP), % of control 74.5.
Pgr (progesterone receptor) #2 scored GFP, % of control 31.9; viability (ATP), % of control 35.8.
Depletion of Pgr (progesterone receptor) #3 came out at: GFP, % of control 37.5; viability (ATP), % of control 61.1.
Against Ehmt2 (euchromatic histone lysine N-methyltransferase 2) #1, the entry reads GFP, % of control 60.8; viability (ATP), % of control 85.
For Ehmt2 (euchromatic histone lysine N-methyltransferase 2) #2, the entry reads GFP, % of control 64.7; viability (ATP), % of control 85.7.
For Ehmt2 (euchromatic histone lysine N-methyltransferase 2) #3, the entry reads GFP, % of control 55.6; viability (ATP), % of control 77.9.
Depletion of Ccdc162 (coiled-coil domain containing 162) #1 resulted in: GFP, % of control 66.1; viability (ATP), % of control 52.5.
Ccdc162 (coiled-coil domain containing 162) #2 gave GFP, % of control 80.5; viability (ATP), % of control 85.8.
For Ccdc162 (coiled-coil domain containing 162) #3, the entry reads GFP, % of control 99.9; viability (ATP), % of control 101.
Adgrg7 (adhesion G protein-coupled receptor G7) #1 showed GFP, % of control 77.1; viability (ATP), % of control 68.3.
Adgrg7 (adhesion G protein-coupled receptor G7) #2 scored GFP, % of control 61.8; viability (ATP), % of control 58.3.
Adgrg7 (adhesion G protein-coupled receptor G7) #3 scored GFP, % of control 55; viability (ATP), % of control 42.2.
Knock-down of Camsap3 #1 gave: GFP, % of control 115; viability (ATP), % of control 90.5.
Against Camsap3 #2, the entry reads GFP, % of control 92.9; viability (ATP), % of control 73.4.
Knock-down of Camsap3 #3 gave: GFP, % of control 108; viability (ATP), % of control 74.3.
After knock-down of Prok2 (prokineticin 2) #1, the record shows GFP, % of control 66.2; viability (ATP), % of control 75.4.
After knock-down of Prok2 (prokineticin 2) #2, the screen gave GFP, % of control 63.9; viability (ATP), % of control 59.
After knock-down of Prok2 (prokineticin 2) #3 the results were GFP, % of control 72.7; viability (ATP), % of control 91.2.
Knock-down of Nkain2 (Na+/K+ transporting ATPase interacting 2) #1 gave: GFP, % of control 46; viability (ATP), % of control 50.8.
After knock-down of Nkain2 (Na+/K+ transporting ATPase interacting 2) #2 the results were GFP, % of control 97.4; viability (ATP), % of control 83.
Nkain2 (Na+/K+ transporting ATPase interacting 2) #3 scored GFP, % of control 57.7; viability (ATP), % of control 60.5.
Silencing of Adap2 (ArfGAP with dual PH domains 2) #1 came out at: GFP, % of control 101; viability (ATP), % of control 117.
Against Adap2 (ArfGAP with dual PH domains 2) #2, the entry reads GFP, % of control 70.3; viability (ATP), % of control 60.7.
Against Adap2 (ArfGAP with dual PH domains 2) #3, the entry reads GFP, % of control 35.6; viability (ATP), % of control 49.1.
Knock-down of Ikbkg (inhibitor of kappaB kinase gamma) #1 gave: GFP, % of control 93.6; viability (ATP), % of control 91.1.
Silencing of Ikbkg (inhibitor of kappaB kinase gamma) #2 resulted in: GFP, % of control 88.6; viability (ATP), % of control 88.2.
Knock-down of Scly (selenocysteine lyase) #1 gave: GFP, % of control 70.4; viability (ATP), % of control 76.3.
For Scly (selenocysteine lyase) #2, the entry reads GFP, % of control 64.5; viability (ATP), % of control 65.5.
Scly (selenocysteine lyase) #3 scored GFP, % of control 55.7; viability (ATP), % of control 60.9.
Krt5 (keratin 5) #1 showed GFP, % of control 75.7; viability (ATP), % of control 61.3.
Silencing of Krt5 (keratin 5) #2 came out at: GFP, % of control 84.5; viability (ATP), % of control 63.5.
Dstn (destrin) #1 showed GFP, % of control 50.6; viability (ATP), % of control 63.
With knock-down of Dstn (destrin) #2, the record shows GFP, % of control 88.3; viability (ATP), % of control 88.6.
With knock-down of Dstn (destrin) #3, the record shows GFP, % of control 79.7; viability (ATP), % of control 71.
Silencing of Vps72 (vacuolar protein sorting 72) #1 resulted in: GFP, % of control 36; viability (ATP), % of control 63.7.
For Vps72 (vacuolar protein sorting 72) #2, the values are GFP, % of control 66.9; viability (ATP), % of control 80.5.
For Vps72 (vacuolar protein sorting 72) #3, the values are GFP, % of control 67.7; viability (ATP), % of control 85.5.
